From patent publication US20100144683A1, “METHODS FOR GENERATING MAMMALIAN MODELS OF ATOPIC DISEASES, AND SCREENING FOR THEIR TREATMENT” (ASSOCIATION POUR LA RECHERCHE A L'IGBMC (ARI), priority 2006, published 2010)
At least one compound was matched to its structure with a doubt left.

System: ears of CD1 wildtype (WT) mice
Experiment: AD-like phenotype upon long-term ear topical treatment (appearance, histology, IHC)
Assay type: in vivo, mouse
Details: topical treatment with the RAR agonist alone
Excerpt: White arrows point to the dermal/epidermal junction. FIGS. 2a and b show the ear appearance at day 17 after ethanol and MC903 treatment, respectively. FIGS. 2c and d show hematoxylin and eosin-stained (HE) ear sections of ethanol- and MC903-treated mice at day 17, respectively. Eosinophil-selective cytoplasmic red staining is pointed by arrows in the inset of (d). FIG. 2 u show hematoxylin and eosin-stained (HE) ear sections of ethanol- and 1α,25(OH)2D3 treated mice every second day, at a dose of 0.25 nmole, at day 18 (D18). FIGS. 2 e to n show the result of IHC performed on ear sections from ethanol- or MC903-treated mice at D17, with antibodies against GR1 (e and f), CD3 (g and h), CD4 (i and j), CD8 (k and l) and CD11c (m and n). Yellow color corresponds to staining of antibodies, whereas blue corresponds to DAPI staining of nuclei. FIGS. 2 o and p show the Toluidin blue (TB)-staining of ear sections. Red arrows point to one of the mast cells with intense blue color in the dermis.

Question: How did the “AD-like phenotype upon topical treatment on its own” value turn out when `CC1=C(/C=C/C(C)=C/C=C/C(C)=C/C(=O)O)C(C)(C)CCC1` [RA, retinoic acid] was run?
Answer: too low to trigger an overt AD-like phenotype
